Measured values published in article PMC8893695, “The microprotein Nrs1 rewires the G1/S transcriptional machinery during nitrogen limitation in budding yeast” (PLoS Biology, 2022).
Results are given in words; binding and its absence hold for the method and conditions named. In cells and extracts the contact can be indirect. Some results given as binding are weak or reduced against the parent protein; the word gives no strength. Tags and fused reporters may be left off the sequences shown.

T1: Whi5^HA (S. cerevisiae) (UniProt Q12416)
T1 sequence: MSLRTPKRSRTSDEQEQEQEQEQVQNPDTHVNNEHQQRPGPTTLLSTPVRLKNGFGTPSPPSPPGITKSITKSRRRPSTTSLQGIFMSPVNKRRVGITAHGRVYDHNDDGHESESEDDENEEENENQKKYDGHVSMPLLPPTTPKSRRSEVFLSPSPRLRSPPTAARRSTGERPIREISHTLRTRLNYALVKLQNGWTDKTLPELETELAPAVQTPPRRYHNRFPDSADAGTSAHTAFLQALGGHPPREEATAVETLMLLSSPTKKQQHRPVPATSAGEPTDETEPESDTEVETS

T2: Whi5^13MYC (S. cerevisiae) (UniProt Q12416)
T2 sequence: T1 sequence

B1: Swi6 (protein, UniProt P09959 1-803)
chain: MALEEVVRYLGPHNEIPLTLTRDSETGHFLLKHFLPILQQYHDTGNINETNPDSFPTDEERNKLLAHYGIAVNTDDRGELWIELEKCLQLLNMLNLFGLFQDAFEFEEPETDQDEEDPSHSKLPENKTKSENSKDNISSKRINNLQDMSLDSDAHRELGSPLKKLKIDTSVIDAESDSTPNTARGKPNDDINKGPSGDNENNGTDDNDRTAGPIITFTHDLTSDFLSSPLKIMKALPSPVVNDNEQKMKLEAFLQRLLFPEIQEMPTSLNNDSSNRNSEGGSSNQQQQHVSFDSLLQEVNDAFPNTQLNLNIPVDEHGNTPLHWLTSIANLELVKHLVKHGSNRLYGDNMGESCLVKAVKSVNNYDSGTFEALLDYLYPCLILEDSMNRTILHHIIITSGMTGCSAAAKYYLDILMGWIVKKQNRPIQSGTNEKESKPNDKNGERKDSILENLDLKWIIANMLNAQDSNGDTCLNIAARLGNISIVDALLDYGADPFIANKSGLRPVDFGAGTSKLQNTNGGDENSKMVSKGDYDGQKNGKAKKIRSQLLKNPPETTSLINDVQNLLNSISKDYENETVQYNEKLEKLHKELNEQREELANSREQLANVKQLKDEYSLMQEQLTNLKAGIEEEEESFREESKKLGIIADESSGIDWDSSEYDADEPFKVEFLSDFLEDKLQKNYEGDISKLLEAESKEQIMEQIRNQLPAEKIQSMLPPTVLLKARINAYKRNDKHLTNVLDTISTKQSELENKFRRVLSLCLKIDENKVDNMLDGLLQAISSEDPQDIDTDEMQDFLKKHAS
B2: Swi4 (protein, UniProt P25302 1-1093)
chain: MPFDVLISNQKDNTNHQNITPISKSVLLAPHSNHPVIEIATYSETDVYECYIRGFETKIVMRRTKDDWINITQVFKIAQFSKTKRTKILEKESNDMQHEKVQGGYGRFQGTWIPLDSAKFLVNKYEIIDPVVNSILTFQFDPNNPPPKRSKNSILRKTSPGTKITSPSSYNKTPRKKNSSSSTSATTTAANKKGKKNASINQPNPSPLQNLVFQTPQQFQVNSSMNIMNNNDNHTTMNFNNDTRHNLINNISNNSNQSTIIQQQKSIHENSFNNNYSATQKPLQFFPIPTNLQNKNVALNNPNNNDSNSYSHNIDNVINSSNNNNNGNNNNLIIVPDGPMQSQQQQQHHHEYLTNNFNHSMMDSITNGNSKKRRKKLNQSNEQQFYNQQEKIQRHFKLMKQPLLWQSFQNPNDHHNEYCDSNGSNNNNNTVASNGSSIEVFSSNENDNSMNMSSRSMTPFSAGNTSSQNKLENKMTDQEYKQTILTILSSERSSDVDQALLATLYPAPKNFNINFEIDDQGHTPLHWATAMANIPLIKMLITLNANALQCNKLGFNCITKSIFYNNCYKENAFDEIISILKICLITPDVNGRLPFHYLIELSVNKSKNPMIIKSYMDSIILSLGQQDYNLLKICLNYQDNIGNTPLHLSALNLNFEVYNRLVYLGASTDILNLDNESPASIMNKFNTPAGGSNSRNNNTKADRKLARNLPQKNYYQQQQQQQQPQNNVKIPKIIKTQHPDKEDSTADVNIAKTDSEVNESQYLHSNQPNSTNMNTIMEDLSNINSFVTSSVIKDIKSTPSKILENSPILYRRRSQSISDEKEKAKDNENQVEKKKDPLNSVKTAMPSLESPSSLLPIQMSPLGKYSKPLSQQINKLNTKVSSLQRIMGEEIKNLDNEVVETESSISNNKKRLITIAHQIEDAFDSVSNKTPINSISDLQSRIKETSSKLNSEKQNFIQSLEKSQALKLATIVQDEESKVDMNTNSSSHPEKQEDEEPIPKSTSETSSPKNTKADAKFSNTVQESYDVNETLRLATELTILQFKRRMTTLKISEAKSKINSSVKLDKYRNLIGITIENIDSKLDDIEKDLRANA

How the values were obtained:
[1] = target: T1, Whi5^HA (S. cerevisiae); assay: co-IP; Whi5^HA immunoprecipitates from strains with empty vector or GAL1-NRS1, induced with galactose for 6 hours; blots for Whi5^HA, Swi4 and Swi6
[2] = target: T2, Whi5^13MYC (S. cerevisiae); assay: co-IP; Nrs1^13MYC or Whi5^13MYC captured on anti-MYC resin from cultures untreated or treated with 200 nM rapamycin for 3 h; blots with polyclonal anti-Swi4 and anti-Swi6

Row | Binder | binding [1] | binding [2]
1 | B1 | binds | binds
2 | B2 | binds | binds
